In publication PMC10784468 (Nature Communications, 2024):
Positions of bridges follow the written chain, without caps; N, C: chain ends. Residues, ends and D or L forms follow the SMILES beside them. *: point of attachment. X1 = O=C(O)c1ccc(-c2c3nc(c(-c4ccc(C(=O)O)cc4)c4ccc([nH]4)c(-c4ccc(C(=O)*)cc4)c4nc(c(-c5ccc(C(=O)O)cc5)c5ccc2[nH]5)C=C4)C=C3)cc1; X2 = O=C(O)C/C(=C/C(=O)*)C(=O)O

Tested on: EJ xenograft tumor
Test: In situ self-assembly in tumor (NBD labeled, frozen sections)
Type: in vivo
Details: EJ xenograft mice, 8 mg/kg i.v.

Question: Which “in situ self-assembly in tumor, NBD fluorescence” value (“in situ self-assembly in tumor” below) does the source give for CC(C)C[C@H](NC(=O)c1ccc(-c2c3nc(c(-c4ccc(C(=O)O)cc4)c4ccc([nH]4)c(-c4ccc(C(=O)O)cc4)c4nc(c(-c5ccc(C(=O)O)cc5)c5ccc2[nH]5)C=C4)C=C3)cc1)C(=O)N[C@@H](CCCCNC(=O)/C=C(/CC(=O)O)C(=O)O)C(=O)N[C@@H](CC(C)C)C(=O)N[C@@H](CCCCN)C(=O)N[C@@H](CC(C)C)C(=O)N[C@@H](CCCCNC(=O)/C=C(/CC(=O)O)C(=O)O)C(=O)NCC(=O)N[C@@H](C)C(=O)N[C@H]1CSSC[C@@H](C(=O)N2CCC[C@H]2C(=O)N[C@H](C(=O)O)C(C)C)NC(=O)[C@@H]2CCCN2C(=O)[C@H](Cc2ccc(O)cc2)NC(=O)[C@H](CC(C)C)NC(=O)[C@@H]2CCCN2C(=O)[C@H](CC(C)C)NC(=O)[C@H](Cc2c[nH]c3ccccc23)NC(=O)[C@H](CC(N)=O)NC1=O [Gi-F-CAA] (X1-LK(X2)LKLK(X2)GACNWLPLYPCPV-OH; disulfide 9-17; C-terminus assumed) here?
Answer: obvious green fluorescence

Question: For “FeTCPP-LKLKLKGACNWLPLYPCPV (disulfide) [Gi-F]”, which “in situ self-assembly in tumor” value is on record?
Answer: moderate green fluorescence

Question: With “FeTCPP-LKLKLK(SA)GACNWLPLYPCPV (disulfide) [Gi-F-SA, control conjugate decorated with non-sensitive succinic anhydride (SA) moieties]” as the compound, how does the “in situ self-assembly in tumor” value read?
Answer: not in Gi-F-SA groups
